# Measurements reported in the supplement of paper PMC8728848.
# This is one part of the list.
# B1: Clec39 (Caenorhabditis elegans) (protein)
# chain: MTSFYDNSSSSSKPVPLKTSRAQKIQILIFDNWKLILYGAISTLILVLAIMFSTLFFALPAANCDENSEPTKYYTTNAEITTTITTTNQKTTSTASSHLTTISSSATQIYSESSSSSTSQSTFTQSPPEISTTTIAPSDFSCQHGFTLVNNKCWKLVTSNQARPDADKICNGYGGATLFSIKSEQDNRAMIHFVKGQDIDFLWSGLLCSAGEPISCIWDIENGSTANYSNFADGFPNIVYGNCVYFITSGDEAGQWGNEQCGQVMNFVCELPATFQGKDGCKNNYEKSCYLRFDLNLTVPQAQNFCLEKCANLVSIHSANEVRFIMTIYDFIGEILIGALAPAQDFIYWLDGTPANYNNLKFFYNSTCVHMTVAPGMQNVGKWFTRFCTETGKFLCKRSIKNSCT
# Tests used:
# Test in all cases: glycan array binding signal (z-score within array); higher = stronger binding
# Conditions in all cases: glycan notation: IUPAC condensed, linker removed
# [1] = biological target: GlcNAc(a1-4)Gal(b1-3)GlcNAc
# How it was run: (§1)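 The Consortium for Functional Glycomics database supplied 3228 glycan arrays, of which those lacking an available protein sequence were dropped. The binding signal, a within-array Z-score, was averaged across arrays of the same protein sequence and across linkers. Negative scores can be read as non-binding.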
# [2] = biological target: GlcNAc(a1-4)Gal(b1-4)GalNAc
# How it was run: as §1
# [3] = biological target: GlcNAc(a1-4)Gal(b1-4)GlcNAc
# How it was run: as §1
# [4] = biological target: GlcNAc(a1-4)Gal(b1-4)GlcNAc(b1-3)Gal(b1-4)Glc
# How it was run: as §1
# [5] = biological target: GlcNAc(a1-4)Gal(b1-4)GlcNAc(b1-3)Gal(b1-4)GlcNAc
# How it was run: as §1
# [6] = biological target: GlcNAc(a1-4)Gal(b1-4)GlcNAc(b1-3)Gal(b1-4)GlcNAc(b1-3)Gal(b1-4)GlcNAc
# How it was run: as §1
# [7] = biological target: GlcNAc(a1-4)Gal(b1-4)GlcNAc(b1-3)Gal(b1-4)[Fuc(a1-3)]GlcNAc(b1-3)Gal(b1-4)[Fuc(a1-3)]GlcNAc
# How it was run: as §1
# [8] = biological target: GlcNAc(a1-6)Gal(b1-4)GlcNAc
# How it was run: as §1
# [9] = biological target: GlcNAc(b1-2)Gal(b1-3)GalNAc
# How it was run: as §1
# [10] = biological target: GlcNAc(b1-2)Man(a1-3)[GlcNAc(b1-2)Man(a1-6)]Man(b1-4)GlcNAc(b1-4)GlcNAc
# How it was run: as §1
# [11] = biological target: GlcNAc(b1-2)Man(a1-3)[GlcNAc(b1-2)Man(a1-6)]Man(b1-4)GlcNAc(b1-4)[Fuc(a1-6)]GlcNAc
# How it was run: as §1
# [12] = biological target: GlcNAc(b1-2)Man(a1-3)[GlcNAc(b1-4)][GlcNAc(b1-2)Man(a1-6)]Man(b1-4)GlcNAc(b1-4)GlcNAc
# How it was run: as §1
# [13] = biological target: GlcNAc(b1-2)Man(a1-3)[GlcNAc(b1-4)][GlcNAc(b1-2)Man(a1-6)]Man(b1-4)GlcNAc(b1-4)[Fuc(a1-6)]GlcNAc
# How it was run: as §1
# [14] = biological target: GlcNAc(b1-2)[GlcNAc(b1-4)]Man(a1-3)[GlcNAc(b1-2)Man(a1-6)]Man(b1-4)GlcNAc(b1-4)GlcNAc
# How it was run: as §1
# [15] = biological target: GlcNAc(b1-2)[GlcNAc(b1-4)]Man(a1-3)[GlcNAc(b1-4)][GlcNAc(b1-2)Man(a1-6)]Man(b1-4)GlcNAc(b1-4)GlcNAc
# How it was run: as §1
# [16] = biological target: GlcNAc(b1-2)[GlcNAc(b1-4)]Man(a1-3)[GlcNAc(b1-4)][GlcNAc(b1-2)[GlcNAc(b1-6)]Man(a1-6)]Man(b1-4)GlcNAc(b1-4)GlcNAc
# How it was run: as §1
# [17] = biological target: GlcNAc(b1-2)[GlcNAc(b1-4)]Man(a1-3)[GlcNAc(b1-4)][GlcNAc(b1-2)[GlcNAc(b1-6)]Man(a1-6)]Man(b1-4)GlcNAc(b1-4)[Fuc(a1-6)]GlcNAc
# How it was run: as §1
# [18] = biological target: GlcNAc(b1-2)[GlcNAc(b1-6)]Man(a1-6)[GlcNAc(b1-2)Man(a1-3)]Man(b1-4)GlcNAc(b1-4)GlcNAc
# How it was run: as §1
# [19] = biological target: GlcNAc(b1-2)[GlcNAc(b1-6)]Man(a1-6)[GlcNAc(b1-2)Man(a1-3)]Man(b1-4)GlcNAc(b1-4)[Fuc(a1-6)]GlcNAc
# How it was run: as §1
# [20] = biological target: GlcNAc(b1-2)[GlcNAc(b1-6)]Man(a1-6)[GlcNAc(b1-4)][GlcNAc(b1-2)Man(a1-3)]Man(b1-4)GlcNAc(b1-4)GlcNAc
# How it was run: as §1
# GlcNAc(b1-3)Fuc = biological target: GlcNAc(b1-3)Fuc
# How it was run: as §1
# GlcNAc(b1-3)Gal = biological target: GlcNAc(b1-3)Gal
# How it was run: as §1
# [21] = biological target: GlcNAc(b1-3)Gal(b1-3)GalNAc
# How it was run: as §1
# GlcNAc(b1-3)Gal(b1-4)Glc = biological target: GlcNAc(b1-3)Gal(b1-4)Glc
# How it was run: as §1
# [22] = biological target: GlcNAc(b1-3)Gal(b1-4)GlcNAc
# How it was run: as §1
# [23] = biological target: GlcNAc(b1-3)Gal(b1-4)GlcNAc(b1-2)Man(a1-3)[GlcNAc(b1-3)Gal(b1-4)GlcNAc(b1-2)Man(a1-6)]Man(b1-4)GlcNAc(b1-4)GlcNAc
# How it was run: as §1
# [24] = biological target: GlcNAc(b1-3)Gal(b1-4)GlcNAc(b1-2)Man(a1-3)[GlcNAc(b1-3)Gal(b1-4)GlcNAc(b1-2)Man(a1-6)]Man(b1-4)GlcNAc(b1-4)[Fuc(a1-6)]GlcNAc
# How it was run: as §1
# [25] = biological target: GlcNAc(b1-3)Gal(b1-4)GlcNAc(b1-2)[GlcNAc(b1-3)Gal(b1-4)GlcNAc(b1-6)]Man(a1-6)[GlcNAc(b1-3)Gal(b1-4)GlcNAc(b1-2)Man(a1-3)]Man(b1-4)GlcNAc(b1-4)GlcNAc
# How it was run: as §1
# [26] = biological target: GlcNAc(b1-3)Gal(b1-4)GlcNAc(b1-3)Gal(b1-4)GlcNAc
# How it was run: as §1
# [27] = biological target: GlcNAc(b1-3)Gal(b1-4)GlcNAc(b1-3)Gal(b1-4)GlcNAc(b1-2)Man(a1-3)[GlcNAc(b1-3)Gal(b1-4)GlcNAc(b1-3)Gal(b1-4)GlcNAc(b1-2)Man(a1-6)]Man(b1-4)GlcNAc(b1-4)GlcNAc
# How it was run: as §1
# [28] = biological target: GlcNAc(b1-3)Gal(b1-4)GlcNAc(b1-3)Gal(b1-4)GlcNAc(b1-2)Man(a1-3)[GlcNAc(b1-3)Gal(b1-4)GlcNAc(b1-3)Gal(b1-4)GlcNAc(b1-2)Man(a1-6)]Man(b1-4)GlcNAc(b1-4)[Fuc(a1-6)]GlcNAc
# How it was run: as §1
# [29] = biological target: GlcNAc(b1-3)Gal(b1-4)GlcNAc(b1-3)Gal(b1-4)GlcNAc(b1-2)[GlcNAc(b1-3)Gal(b1-4)GlcNAc(b1-3)Gal(b1-4)GlcNAc(b1-6)]Man(a1-6)[GlcNAc(b1-3)Gal(b1-4)GlcNAc(b1-3)Gal(b1-4)GlcNAc(b1-2)Man(a1-3)]Man(b1-4)GlcNAc(b1-4)[Fuc(a1-6)]GlcNAc
# How it was run: as §1
# [30] = biological target: GlcNAc(b1-3)Gal(b1-4)GlcNAc(b1-3)Gal(b1-4)GlcNAc(b1-3)Gal(b1-4)GlcNAc(b1-2)Man(a1-3)[GlcNAc(b1-3)Gal(b1-4)GlcNAc(b1-3)Gal(b1-4)GlcNAc(b1-3)Gal(b1-4)GlcNAc(b1-2)Man(a1-6)]Man(b1-4)GlcNAc(b1-4)GlcNAc
# How it was run: as §1
# [31] = biological target: GlcNAc(b1-3)Gal(b1-4)GlcNAc(b1-3)Gal(b1-4)GlcNAc(b1-3)Gal(b1-4)GlcNAc(b1-2)Man(a1-3)[GlcNAc(b1-3)Gal(b1-4)GlcNAc(b1-3)Gal(b1-4)GlcNAc(b1-3)Gal(b1-4)GlcNAc(b1-2)Man(a1-6)]Man(b1-4)GlcNAc(b1-4)[Fuc(a1-6)]GlcNAc
# How it was run: as §1
# [32] = biological target: GlcNAc(b1-3)Gal(b1-4)GlcNAc(b1-3)Gal(b1-4)GlcNAc(b1-3)Gal(b1-4)GlcNAc(b1-2)[GlcNAc(b1-3)Gal(b1-4)GlcNAc(b1-3)Gal(b1-4)GlcNAc(b1-3)Gal(b1-4)GlcNAc(b1-6)]Man(a1-6)[GlcNAc(b1-3)Gal(b1-4)GlcNAc(b1-3)Gal(b1-4)GlcNAc(b1-3)Gal(b1-4)GlcNAc(b1-2)Man(a1-3)]Man(b1-4)GlcNAc(b1-4)[Fuc(a1-6)]GlcNAc
# How it was run: as §1
# [33] = biological target: GlcNAc(b1-3)Gal(b1-4)GlcNAc(b1-3)Gal(b1-4)GlcNAc(b1-3)Gal(b1-4)GlcNAc(b1-3)Gal(b1-4)GlcNAc(b1-2)Man(a1-3)[GlcNAc(b1-3)Gal(b1-4)GlcNAc(b1-3)Gal(b1-4)GlcNAc(b1-3)Gal(b1-4)GlcNAc(b1-3)Gal(b1-4)GlcNAc(b1-2)Man(a1-6)]Man(b1-4)GlcNAc(b1-4)GlcNAc
# How it was run: as §1
# [34] = biological target: GlcNAc(b1-3)Gal(b1-4)GlcNAc(b1-3)Gal(b1-4)GlcNAc(b1-3)Gal(b1-4)GlcNAc(b1-3)Gal(b1-4)GlcNAc(b1-2)Man(a1-3)[GlcNAc(b1-3)Gal(b1-4)GlcNAc(b1-3)Gal(b1-4)GlcNAc(b1-3)Gal(b1-4)GlcNAc(b1-3)Gal(b1-4)GlcNAc(b1-2)Man(a1-6)]Man(b1-4)GlcNAc(b1-4)[Fuc(a1-6)]GlcNAc
# How it was run: as §1
# [35] = biological target: GlcNAc(b1-3)Gal(b1-4)GlcNAc(b1-3)Gal(b1-4)GlcNAc(b1-3)Gal(b1-4)GlcNAc(b1-3)Gal(b1-4)GlcNAc(b1-2)[GlcNAc(b1-3)Gal(b1-4)GlcNAc(b1-3)Gal(b1-4)GlcNAc(b1-3)Gal(b1-4)GlcNAc(b1-3)Gal(b1-4)GlcNAc(b1-6)]Man(a1-6)[GlcNAc(b1-3)Gal(b1-4)GlcNAc(b1-3)Gal(b1-4)GlcNAc(b1-3)Gal(b1-4)GlcNAc(b1-3)Gal(b1-4)GlcNAc(b1-2)Man(a1-3)]Man(b1-4)GlcNAc(b1-4)[Fuc(a1-6)]GlcNAc
# How it was run: as §1
binder,measurement,setting,value
B1,glycan array binding signal (z-score),[1],0.627
same,glycan array binding signal (z-score),[2],-0.942
same,glycan array binding signal (z-score),[3],0.563
same,glycan array binding signal (z-score),[4],-0.064
same,glycan array binding signal (z-score),[5],-1.06
same,glycan array binding signal (z-score),[6],-0.47
same,glycan array binding signal (z-score),[7],3.59
same,glycan array binding signal (z-score),[8],-0.512
same,glycan array binding signal (z-score),[9],0.357
same,glycan array binding signal (z-score),[10],-0.308
same,glycan array binding signal (z-score),[11],0.308
same,glycan array binding signal (z-score),[12],-0.237
same,glycan array binding signal (z-score),[13],0.967
same,glycan array binding signal (z-score),[14],0.095
same,glycan array binding signal (z-score),[15],0.673
same,glycan array binding signal (z-score),[16],0.153
same,glycan array binding signal (z-score),[17],-0.483
same,glycan array binding signal (z-score),[18],-0.576
same,glycan array binding signal (z-score),[19],0.586
same,glycan array binding signal (z-score),[20],-0.669
same,glycan array binding signal (z-score),GlcNAc(b1-3)Fuc,0.515
same,glycan array binding signal (z-score),GlcNAc(b1-3)Gal,0.452
same,glycan array binding signal (z-score),[21],0.161
same,glycan array binding signal (z-score),GlcNAc(b1-3)Gal(b1-4)Glc,-0.771
same,glycan array binding signal (z-score),[22],-0.675
same,glycan array binding signal (z-score),[23],0.007
same,glycan array binding signal (z-score),[24],-0.822
same,glycan array binding signal (z-score),[25],1.07
same,glycan array binding signal (z-score),[26],0.546
same,glycan array binding signal (z-score),[27],0.778
same,glycan array binding signal (z-score),[28],0.417
same,glycan array binding signal (z-score),[29],0.227
same,glycan array binding signal (z-score),[30],-0.221
same,glycan array binding signal (z-score),[31],-0.25
same,glycan array binding signal (z-score),[32],0.618
same,glycan array binding signal (z-score),[33],0.024
same,glycan array binding signal (z-score),[34],0.46
same,glycan array binding signal (z-score),[35],0.475

# 3 records picked at random from the list so far, as already listed:
binder,measurement,setting,value
B1,glycan array binding signal (z-score),[12],-0.237
same,glycan array binding signal (z-score),[16],0.153
same,glycan array binding signal (z-score),[1],0.627
